The results in this text go back to doi:10.1101/2022.12.28.522133.

The chains behind the UniProt entries cited, without tags or fusion partners.
UniProt P15924: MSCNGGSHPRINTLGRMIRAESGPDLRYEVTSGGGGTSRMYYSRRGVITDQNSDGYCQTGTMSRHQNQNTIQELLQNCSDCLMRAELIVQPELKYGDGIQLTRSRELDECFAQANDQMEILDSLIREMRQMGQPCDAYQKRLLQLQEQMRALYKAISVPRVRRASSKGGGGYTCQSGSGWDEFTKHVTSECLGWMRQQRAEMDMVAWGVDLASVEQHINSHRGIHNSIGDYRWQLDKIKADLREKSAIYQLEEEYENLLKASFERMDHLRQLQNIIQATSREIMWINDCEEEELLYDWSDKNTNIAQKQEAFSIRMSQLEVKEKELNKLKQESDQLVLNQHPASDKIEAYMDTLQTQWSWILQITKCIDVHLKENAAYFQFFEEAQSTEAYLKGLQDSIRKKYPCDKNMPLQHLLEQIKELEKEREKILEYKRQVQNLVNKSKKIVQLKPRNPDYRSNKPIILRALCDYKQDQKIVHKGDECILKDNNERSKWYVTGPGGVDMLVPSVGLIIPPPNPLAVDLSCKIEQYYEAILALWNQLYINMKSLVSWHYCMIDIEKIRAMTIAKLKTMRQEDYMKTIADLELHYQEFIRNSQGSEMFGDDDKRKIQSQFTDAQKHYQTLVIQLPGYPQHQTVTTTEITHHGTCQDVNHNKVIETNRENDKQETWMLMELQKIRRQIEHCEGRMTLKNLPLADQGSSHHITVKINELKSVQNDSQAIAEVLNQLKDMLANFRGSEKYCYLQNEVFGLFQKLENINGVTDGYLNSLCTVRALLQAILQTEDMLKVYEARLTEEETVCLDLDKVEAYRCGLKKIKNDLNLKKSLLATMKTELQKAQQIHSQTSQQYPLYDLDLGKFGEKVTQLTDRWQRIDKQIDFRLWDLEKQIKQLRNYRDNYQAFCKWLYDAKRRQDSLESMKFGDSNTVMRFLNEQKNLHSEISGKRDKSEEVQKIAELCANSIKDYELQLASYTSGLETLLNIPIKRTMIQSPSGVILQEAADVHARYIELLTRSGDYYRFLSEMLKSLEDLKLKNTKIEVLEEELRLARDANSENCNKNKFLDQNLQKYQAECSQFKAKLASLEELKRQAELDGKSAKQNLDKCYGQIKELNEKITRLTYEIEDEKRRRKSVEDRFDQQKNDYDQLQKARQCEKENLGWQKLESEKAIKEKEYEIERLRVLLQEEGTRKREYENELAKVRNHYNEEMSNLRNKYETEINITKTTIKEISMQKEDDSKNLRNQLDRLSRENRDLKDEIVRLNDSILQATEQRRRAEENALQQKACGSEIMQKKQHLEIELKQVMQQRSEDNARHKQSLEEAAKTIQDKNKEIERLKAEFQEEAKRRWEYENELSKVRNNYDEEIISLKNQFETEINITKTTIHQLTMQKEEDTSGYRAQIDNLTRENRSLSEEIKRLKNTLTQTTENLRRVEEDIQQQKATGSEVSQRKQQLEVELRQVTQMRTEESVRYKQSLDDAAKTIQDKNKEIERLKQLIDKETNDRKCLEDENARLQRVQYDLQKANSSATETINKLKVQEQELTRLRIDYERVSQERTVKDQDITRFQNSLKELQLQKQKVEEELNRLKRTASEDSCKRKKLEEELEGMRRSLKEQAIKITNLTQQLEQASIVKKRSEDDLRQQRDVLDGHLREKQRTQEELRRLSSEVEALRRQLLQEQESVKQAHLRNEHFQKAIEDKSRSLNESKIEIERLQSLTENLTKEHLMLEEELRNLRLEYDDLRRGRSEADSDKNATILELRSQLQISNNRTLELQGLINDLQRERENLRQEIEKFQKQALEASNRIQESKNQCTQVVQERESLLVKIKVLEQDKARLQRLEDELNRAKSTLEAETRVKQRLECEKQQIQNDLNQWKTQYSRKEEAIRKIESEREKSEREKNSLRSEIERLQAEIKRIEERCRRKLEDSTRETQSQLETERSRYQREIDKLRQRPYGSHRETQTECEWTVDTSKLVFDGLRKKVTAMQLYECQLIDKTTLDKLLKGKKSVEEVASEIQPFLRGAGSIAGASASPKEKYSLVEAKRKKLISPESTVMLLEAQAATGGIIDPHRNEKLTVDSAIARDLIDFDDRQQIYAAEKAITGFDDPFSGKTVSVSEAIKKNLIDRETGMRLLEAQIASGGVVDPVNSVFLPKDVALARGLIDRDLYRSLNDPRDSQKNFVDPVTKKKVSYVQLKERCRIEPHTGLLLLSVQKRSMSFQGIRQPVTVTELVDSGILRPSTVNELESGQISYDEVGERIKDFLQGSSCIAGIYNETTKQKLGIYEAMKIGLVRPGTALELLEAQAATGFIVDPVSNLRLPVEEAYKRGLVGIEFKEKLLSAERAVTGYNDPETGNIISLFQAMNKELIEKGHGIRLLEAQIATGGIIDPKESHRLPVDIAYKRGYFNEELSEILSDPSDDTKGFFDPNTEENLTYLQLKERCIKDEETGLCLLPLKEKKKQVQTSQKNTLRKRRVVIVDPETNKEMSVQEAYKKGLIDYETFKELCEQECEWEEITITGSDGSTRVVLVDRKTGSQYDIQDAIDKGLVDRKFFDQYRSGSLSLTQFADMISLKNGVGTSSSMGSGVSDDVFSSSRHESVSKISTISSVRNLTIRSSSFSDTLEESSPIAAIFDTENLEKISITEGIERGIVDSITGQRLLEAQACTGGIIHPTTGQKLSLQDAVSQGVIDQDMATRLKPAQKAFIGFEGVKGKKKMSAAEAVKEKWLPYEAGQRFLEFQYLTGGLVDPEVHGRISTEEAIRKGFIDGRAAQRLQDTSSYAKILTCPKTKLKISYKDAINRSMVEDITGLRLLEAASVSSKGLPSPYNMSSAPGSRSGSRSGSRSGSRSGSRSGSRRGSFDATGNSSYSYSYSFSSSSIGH

No constants are given. Whether binding was seen depends on the method and setting. Binding seen in cells or lysates may run through a third protein. Some results given as binding are weak or reduced against the parent protein; the word gives no strength. Where a sequence is shown, tags or fusion partners need not be part of it.

This assay deals with T1, SERPINB5-GFP (human (cDNA from HaCaT)) (UniProt P36952).
T1 sequence: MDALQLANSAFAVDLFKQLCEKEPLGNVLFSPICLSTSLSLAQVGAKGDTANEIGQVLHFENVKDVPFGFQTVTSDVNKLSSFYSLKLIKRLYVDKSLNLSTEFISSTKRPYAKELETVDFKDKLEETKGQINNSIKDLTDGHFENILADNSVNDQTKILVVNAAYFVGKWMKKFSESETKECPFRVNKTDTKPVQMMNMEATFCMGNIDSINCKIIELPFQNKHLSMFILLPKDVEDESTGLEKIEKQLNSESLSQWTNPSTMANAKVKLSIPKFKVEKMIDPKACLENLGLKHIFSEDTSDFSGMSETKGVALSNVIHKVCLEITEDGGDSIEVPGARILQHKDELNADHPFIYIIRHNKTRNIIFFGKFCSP
In words: co-IP.

Turning to “desmoplakin (from UniProt P15924 1-2871)”, the binding result is recorded as “binds”.
